These are yes or no findings as the source states them, for the method shown. Binding seen in cells or lysates may run through a third protein. Binding can be weak; no strength is given.
Target: Tip60-H3F (Tip60 with a C-terminal 6-histidine-3-FLAG tag, from the endogenous gene) in ESCs (mouse (endogenous in ESCs)) (UniProt Q8CHK4)
Assay: co-IP; Tip60-H3F immunoprecipitated with anti-FLAG (FLAG-M2 Agarose) from nuclear extracts (ESCs; NSCs), Western blot; IP buffer 50 mM Tris-HCl pH7.4, 250 mM NaCl, 0.1% Triton X-100, overnight at 4°C; also with DNase I or ethidium bromide, with high-salt washes, and with five additional washes with or without 10 uM tubastatin A

Amino acid sequences for entries named in this document (tags omitted). A change or cut given only in a name is not applied to a line headed by its entry.
UniProt Q8CHK4: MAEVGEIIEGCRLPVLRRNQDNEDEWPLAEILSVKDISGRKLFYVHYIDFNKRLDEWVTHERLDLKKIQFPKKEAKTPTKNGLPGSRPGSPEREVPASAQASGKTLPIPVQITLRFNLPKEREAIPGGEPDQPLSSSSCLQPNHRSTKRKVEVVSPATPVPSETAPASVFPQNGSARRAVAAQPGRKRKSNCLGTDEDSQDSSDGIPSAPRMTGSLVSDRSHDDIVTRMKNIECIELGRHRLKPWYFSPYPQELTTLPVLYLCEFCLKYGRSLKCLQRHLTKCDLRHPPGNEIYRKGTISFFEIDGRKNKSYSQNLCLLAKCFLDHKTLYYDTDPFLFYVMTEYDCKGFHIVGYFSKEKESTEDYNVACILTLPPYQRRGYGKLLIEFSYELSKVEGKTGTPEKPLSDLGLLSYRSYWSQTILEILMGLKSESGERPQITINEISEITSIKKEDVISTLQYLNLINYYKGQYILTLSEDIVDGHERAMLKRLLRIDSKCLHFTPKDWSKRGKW
UniProt Q9Z2V5: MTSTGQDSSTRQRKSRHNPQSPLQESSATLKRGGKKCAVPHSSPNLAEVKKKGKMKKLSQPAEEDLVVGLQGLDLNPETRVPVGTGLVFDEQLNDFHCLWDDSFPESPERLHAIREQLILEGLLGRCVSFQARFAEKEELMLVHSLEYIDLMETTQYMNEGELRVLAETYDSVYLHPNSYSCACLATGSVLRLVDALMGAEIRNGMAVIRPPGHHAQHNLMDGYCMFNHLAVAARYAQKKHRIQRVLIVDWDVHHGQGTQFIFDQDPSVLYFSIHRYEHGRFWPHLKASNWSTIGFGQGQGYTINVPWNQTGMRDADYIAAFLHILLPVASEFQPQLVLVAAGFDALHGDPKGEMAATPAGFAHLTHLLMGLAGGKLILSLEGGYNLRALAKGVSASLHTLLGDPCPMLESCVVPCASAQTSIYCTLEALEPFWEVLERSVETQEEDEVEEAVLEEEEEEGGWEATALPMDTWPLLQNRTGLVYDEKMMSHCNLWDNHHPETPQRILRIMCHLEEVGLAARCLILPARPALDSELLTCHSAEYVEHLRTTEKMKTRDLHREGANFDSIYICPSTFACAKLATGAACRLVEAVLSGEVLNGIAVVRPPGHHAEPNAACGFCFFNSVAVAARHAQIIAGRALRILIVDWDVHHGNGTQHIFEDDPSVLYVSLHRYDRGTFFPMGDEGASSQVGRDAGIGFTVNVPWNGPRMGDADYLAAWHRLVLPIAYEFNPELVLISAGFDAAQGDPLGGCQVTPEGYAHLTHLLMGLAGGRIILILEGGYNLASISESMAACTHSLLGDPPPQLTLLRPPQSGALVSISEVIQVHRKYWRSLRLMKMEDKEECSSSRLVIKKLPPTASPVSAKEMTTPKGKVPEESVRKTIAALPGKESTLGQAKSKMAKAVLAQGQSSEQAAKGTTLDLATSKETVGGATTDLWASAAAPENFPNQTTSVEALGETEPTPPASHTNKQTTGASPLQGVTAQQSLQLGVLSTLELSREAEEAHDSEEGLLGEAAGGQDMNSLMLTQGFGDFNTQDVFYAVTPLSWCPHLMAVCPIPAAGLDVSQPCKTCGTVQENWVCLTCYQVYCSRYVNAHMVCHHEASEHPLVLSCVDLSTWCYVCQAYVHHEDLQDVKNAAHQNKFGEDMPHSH

binding: binds
Substance: HA-tagged Hdac6 deacetylase domain 1 (HD1) mutant (from UniProt Q9Z2V5)
